Cell number change and AC50 data for 63 molecules are collected here from PubChem BioAssay AID2685 (National Center for Advancing Translational Sciences (NCATS), 2010).

This assay can be described thus: qHTS Assay for Lipid Storage Modulators in Drosophila S3 Cells.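 As to Cell number change: cells counted by Cell Tracker Red CMTPX staining in the red channel.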 The following applies: BODIPY lipid droplet fluorescence, 18-24 h; for cell number change: measured here: cell count max response, cells fed with added oleic acid. An outline of the steps: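 Drosophila S3 cells loaded with oleic acid (400 uM, as added) and compounds at several concentrations; lipid droplets imaged by 488-nm laser-scanning cytometry, 500–530 nm intensity and object ratio to cell channel. Percent activity normalized to 20 uM Triacsin C.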
(qHTS replaces the single test concentration by a dilution series.)

The mark [1] stands for this setting: measured here: lipid fluorescence (Fed channel) AC50, cells fed with added oleic acid.
Where [2] appears, read: measured here: cell number channel AC50, cells fed with added oleic acid.

Some of the results follow. Further columns of the screen follow, without active or inactive calls. The list favours compounds with an active or inconclusive main result. The note in brackets gives the kind of curve behind each potency; many fits are weak.

Turning to `O=C1CC(N2CCN(c3ccc(F)cc3)CC2)C(=O)N1Cc1ccc(N2CCCC2=O)cc1` (stereo unspecified), the cell number change was -25.6%. Moreover, the AC50 under setting [1] was 0.184 µM [falling, full curve, poor fit].
Turning to `CCOc1ccc(C(=O)COC(=O)c2cc(=O)[nH]c3ccccc23)cc1`, the cell number change was -7.7%.
Regarding `CCc1ccccc1NC(=O)CN(C)C(=O)COC(=O)c1c(Cl)cccc1Cl`, the cell number change is -9.39%.
For the molecule `CCOC(=O)C1(CCCc2ccccc2)CCN(C(=O)CCN2CCCCC2=O)CC1`, the cell number change is -19%. Besides, the AC50 under setting [1] is 16.4 µM [falling, partial curve, poor fit].
In the case of `COc1ccc(/C=N/NC(=S)Nc2ccccc2[N+](=O)[O-])cc1O`, the cell number change is -34.9%. The AC50 under setting [2] is 29.1 µM [falling, partial curve]. Moreover, the AC50 under setting [1] is 23.1 µM [falling, partial curve, poor fit].
Take `Cc1ccc(CN2CCC(CO)(CC3CCCCO3)CC2)o1` (stereo unspecified): the cell number change is -12.9%.
Regarding `CC1(C)CC(=O)c2cnc(NC(=O)CCc3ccccc3)nc2C1`, the cell number change was determined as 2.97%. In addition, under setting [1], the AC50 was 6.51 µM [rising, partial curve, poor fit].
Take `O=C(CSc1nc2cc(Cl)ccc2s1)c1cc2ccccc2o1`: the cell number change is 49.5%. In addition, the AC50 under setting [2] is 0.259 µM [rising, partial curve].
For `Cc1ccc(-n2nnnc2SCC(=O)Nc2cccnc2Cl)cc1`, the cell number change amounted to 2.37%. The AC50 under setting [1] is 32.6 µM [falling, single point].
As for `O=C(Nc1ccccc1)N1CCC(=S)Nc2ccccc21`, the cell number change was -24.5%. In addition, the AC50 under setting [1] is 13 µM [falling, partial curve, poor fit].
Consider `O=C(COc1cccc(Oc2ccccc2)c1)Nc1ncccn1`, for which, under setting [2], the AC50 was 4.61 µM [falling, single point].
For `CCOCCCNC(=O)C(c1ccc(Cl)cc1)N1CCN(C(=O)c2ccco2)CC1` (stereo unspecified), the AC50 under setting [1] is 5.17 µM [falling, full curve].
With `Clc1nc(-c2n[nH]nc2Cl)n[nH]1`, the cell number change was -0.501%. Besides, under setting [1], the AC50 was 16.4 µM [falling, single point].
With `Cc1occc1-c1n[nH]c(=S)n1-c1ccccc1`, the cell number change was -3.7%. Also, the concentration at half-maximal activity (AC50) under setting [1] is 0.461 µM [falling, single point].
`CCOC(=O)C(NC(=O)Nc1ccc(C(N)=O)cc1)(c1ccccc1)C(F)(F)F` (stereo unspecified): the cell number change was -1.98%. In addition, under setting [1], the AC50 is 18.4 µM [falling, single point].
With `Cc1cccc(-c2nc(CS(=O)CC(=O)N3CCCCC3)c(C)o2)c1` (stereo unspecified), the cell number change turned out to be 32.8%. In addition, the AC50 under setting [2] was 25.9 µM [rising, single point]. Under setting [1], the AC50 was 2.31 µM [rising, full curve, poor fit].
Take `CN(C)CCCN1C(=O)c2cccc3cccc(c23)C1=O`: the cell number change is -0.787%. Under setting [1], the AC50 is 29.1 µM [rising, single point].
On to `Cc1ccccc1C#N`, for which the cell number change is -4.66%. The AC50 under setting [1] is 2.59 µM [rising, single point].
For `Cc1cc(SCc2ccc(Cl)cc2)nc(=O)[nH]1`, the cell number change was -4.82%. Also, under setting [1], the half-maximal activity concentration (AC50) is 6.51 µM [rising, single point].
Turning to `COC(=O)Nc1ccc(S(=O)(=O)N2CCCC(C(=O)O)C2)cc1` (stereo unspecified), the cell number change was -53.4%.
For the molecule `CCOc1ccc(NC(=O)CN2C(=O)CSc3ccc(S(=O)(=O)N4CCCC4)cc32)cc1`, the cell number change came out at 38%. For the same molecule, the AC50 under setting [2] is 29.1 µM [rising, single point]. In addition, the AC50 under setting [1] is 23.1 µM [rising, partial curve].
For the molecule `O=[N+]([O-])c1ccccc1S(=O)(=O)N1CCN(c2ccc(F)cc2)CC1`, the cell number change is -5.22%.
The same measure, in the same setting: the same measure for `Cc1ccccc1NC(=O)CN1C(=O)COc2ccc(Cl)cc21`: 1.01%.
For the molecule `O=CN1CCN(S(=O)(=O)c2ccc(Cl)c(C(=O)O)c2)CC1`, the cell number change turned out to be 9.9%. Besides, under setting [1], the AC50 is 4.11 µM [rising, single point].
Consider `COc1ccc(C(=O)NCCN2CCN(C(=O)c3ccc(OC)cc3)CC2)cc1`, for which the cell number change is 43.1%. Under setting [2], the half-maximal activity concentration (AC50) was 29.1 µM [rising, single point]. The AC50 under setting [1] is 29.1 µM [rising, single point].
Consider `CCc1ccccc1NC(=O)[C@@H]1CCC(=O)N1C1OC(=O)c2ccccc21` (stereo partly specified), for which the cell number change came out at 12.3%.
With `COc1ccc(OCc2cc(C(=O)NCC(C)(C)N3CCOCC3)no2)c(Cl)c1`, the cell number change is 11.1%. The AC50 under setting [2] is 2.31 µM [rising, partial curve, poor fit]. For the same molecule, under setting [1], the AC50 was 4.61 µM [rising, partial curve, poor fit].
Take `CCCCN1C(=S)SC(C)(C)C1/[N+]([O-])=C/c1cccnc1` (stereo unspecified): the cell number change was -26.2%. Moreover, the AC50 under setting [2] was 0.164 µM [falling, full curve, poor fit].
In the case of `COc1ccccc1NC(=O)Cn1c(CN2CCCCC2)nc2ccccc2c1=O`, the cell number change worked out at 11.1%.
Take `COc1ccc(NC(=O)CN(C)S(=O)(=O)c2cccc3nsnc23)cc1OC`: the cell number change was determined as 10.2%. Besides, the AC50 under setting [1] is 14.6 µM [rising, partial curve].
Regarding `Cc1cccc(C(=O)N2CC3(C)CC2CC(C)(C)C3)c1` (stereo unspecified), the cell number change was -19.3%.
On to `COc1ccc(CNC(=O)CN(Cc2ccco2)C(=O)CCC(=O)Nc2ccccn2)cc1`, for which the cell number change came out at 15.3%. Besides, under setting [1], the concentration at half-maximal activity (AC50) was 6.51 µM [rising, partial curve, poor fit].
Turning to `CC(=O)c1cccc(CN2CCC(n3nccc3NC(=O)c3ccc4c(c3)OCO4)CC2)c1`, the cell number change was -36.3%.
In the case of `O=C(Nc1cc(-c2nc3ncccc3o2)ccc1Cl)c1ccc2c(c1)OCO2`, the cell number change was 4.46%. Further, the AC50 under setting [1] is 0.00411 µM [rising, full curve, poor fit].
As for `CC(=O)c1c(C)[nH]c(C(=O)N2CC(C)CC(C)C2)c1C` (stereo unspecified), the cell number change came out at 17%.
As for `O=C1CCCC2=C1C(c1ccccc1)CC(=O)N2c1ccc(F)cc1F` (stereo unspecified), the cell number change was -24.2%. The AC50 under setting [2] was 0.116 µM [falling, full curve, poor fit].
With `CCOC(=O)CCCNC(=O)COC(=O)c1cccc(C)c1O`, the cell number change is 7.52%. The AC50 under setting [1] was 10.3 µM [rising, partial curve].
Turning to `Nc1c(C(=O)c2ccccc2)oc2ccc(Br)cc12`, the cell number change was -51%. For the same molecule, the AC50 under setting [2] is 25.9 µM [falling, partial curve, poor fit].
For `N#Cc1cn(Cc2ccncc2)c(=O)[nH]c1=O`, the cell number change amounted to 12.8%.
In the case of `CCc1nnc(NC(=O)CSc2nnc(-c3ccoc3C)n2-c2cccc(C)c2)s1`, the cell number change turned out to be 58.9%. Further, the AC50 under setting [2] was 18.4 µM [rising, single point]. Further, the half-maximal activity concentration (AC50) under setting [1] was 5.8 µM [rising, full curve].
Turning to `CCCCCc1c(C)nc(NCc2ccccc2)[nH]c1=O`, the cell number change is -48.7%. Besides, under setting [2], the AC50 is 5.17 µM [falling, full curve]. Besides, under setting [1], the AC50 was 5.17 µM [falling, full curve].
Take `N=C(c1ccc([N+](=O)[O-])cc1)N1CCCCC1`: the cell number change is 34.6%. For the same molecule, under setting [2], the AC50 was 29.1 µM [rising, single point].
Regarding `COc1ccc(CNc2oc(COc3ccccc3Cl)nc2C#N)cc1`, the cell number change was found to be 80.8%.
Regarding `Cc1cc(NC(=O)Cn2cnc3c(nnn3-c3ccc(C)c(Cl)c3)c2=O)no1`, the cell number change was -32.9%. Besides, under setting [2], the AC50 was 7.31 µM [falling, single point]. Further, the AC50 under setting [1] is 1.16 µM [rising, single point].
With `O=C(COc1ccccc1)Nc1ccccc1N1CCCCC1`, the cell number change is -37.1%. For the same molecule, the AC50 under setting [2] is 18.4 µM [falling, single point]. The AC50 under setting [1] is 29.1 µM [falling, single point].
Take `CCC(=O)Nc1c(S(=O)(=O)c2ccccc2)c2nc3ccccc3nc2n1C(C)c1ccccc1` (stereo unspecified): the cell number change is -35.9%. Besides, the AC50 under setting [2] is 29.1 µM [falling, single point]. For the same molecule, the AC50 under setting [1] was 29.1 µM [falling, single point].
With `O=C(Nc1cccnc1)c1c(F)c(F)c(F)c(F)c1F`, the cell number change is -14%. The AC50 under setting [1] was 29.1 µM [falling, single point].
For `Cc1ccc(SCC(=O)OCC(=O)NCCC2=CCCCC2)cc1`, the cell number change is -25%. The AC50 under setting [2] was 0.651 µM [falling, full curve, poor fit].
In the case of `COC(=O)C1=C(C)NC(=O)CC1c1cc(Br)ccc1F` (stereo unspecified), the cell number change was 85.3%. Also, the half-maximal activity concentration (AC50) under setting [2] is 29.1 µM [rising, single point].
On to `COc1ccc(Cc2nc3ccc(C(=O)N(C)CCc4cnn(C)c4)cc3o2)cc1OC`, for which the concentration at half-maximal activity (AC50) under setting [1] is 6.51 µM [falling, single point].
Regarding `COC(=O)c1cc(C(C)=O)c(C)[nH]c1=O`, the cell number change is -0.94%. Further, under setting [1], the half-maximal activity concentration (AC50) was 6.51 µM [falling, single point].
`CCCCCCCCCCCCCCCCn1cc[n+](CC(C)=O)c1`: the cell number change is -81.9%. For the same molecule, under setting [2], the AC50 is 14.6 µM [falling, partial curve]. The AC50 under setting [1] is 16.4 µM [falling, partial curve].
In the case of `NS(=O)(=O)c1cccc(NC(=O)CC23CC4CC(CC(Br)(C4)C2)C3)c1`, the cell number change is 0.794%. In addition, the AC50 under setting [1] was 18.4 µM [rising, single point].
On to `O=C(Cc1ccc(Cl)cc1)Nc1ccc(Br)cc1`, for which the cell number change is -8.61%. Besides, the AC50 under setting [2] was 0.651 µM [falling, single point].
Take `NC(=O)c1cc(S(=O)(=O)N2CCOCC2)ccc1Sc1ccccc1N`: the cell number change was -1.3%.
For the molecule `O=C(COC(=O)c1ccc(O)cc1)c1ccc(S(=O)(=O)N2CCCCC2)cc1`, the cell number change was -35.6%. In addition, under setting [2], the AC50 is 32.6 µM [falling, single point]. Further, the AC50 under setting [1] is 0.00517 µM [falling, full curve, poor fit].
Take `O=C(NCCc1ccccc1)C(c1cccs1)N(C(=O)CCl)c1ccc(Cl)cc1` (stereo unspecified): the cell number change was -14.7%. For the same molecule, the concentration at half-maximal activity (AC50) under setting [1] is 18.4 µM [falling, single point].
For the molecule `CC(C)[C@H](NC(N)=O)C(=O)Nc1ccc2c(c1)CCC2`, the cell number change was -34.6%. Also, the AC50 under setting [2] is 25.9 µM [falling, single point]. The AC50 under setting [1] was 0.651 µM [falling, full curve].
Take `O=C(NCCNC(=O)c1ccccn1)c1ccccc1`: the cell number change was -2.63%. Also, the concentration at half-maximal activity (AC50) under setting [2] is 0.058 µM [falling, full curve, poor fit].
For `CCCC(NC(=O)Cc1c(C)c2c(cc(C)c3c(C)coc32)oc1=O)C(=O)O` (stereo unspecified), the cell number change is 4.96%. For the same molecule, the AC50 under setting [1] is 29.1 µM [rising, single point].
On to `COc1ccc(CCN(C)C(=O)C2CCN(Cc3ccccc3)CC2)cc1OC`, for which the cell number change was -2.98%.
In the case of `Cc1ccc(OCc2cc(C(=O)N3CCN(C4CCCCC4)CC3)no2)cc1C`, the cell number change was -18.5%.
`CCn1c(/N=C/c2c[nH]c3ccccc23)nc2ccccc21`: the cell number change is -37.2%. Also, the AC50 under setting [2] was 18.4 µM [falling, single point]. Besides, the AC50 under setting [1] is 29.1 µM [falling, single point].

One may read the AC50 as the concentration giving half of the maximal activity seen. Lower therefore signals greater potency.
